For the assay, the target named is GFP-NSP2 (non-structural protein 2 of PRRSV fused to GFP) (PRRSV (strain of the plasmid not stated)). The assay is described as follows: co-IP; GFP pull-down: 293T cells transfected with GFP-nsp2 or pEGFP-C1, lysed at 24 h; clarified lysates incubated with GFP-Trap beads 2 h at 4 °C; bound proteins eluted with 2 x SDS sample buffer; Western blot with antibodies against 14-3-3β, ε, γ and τ/ζ.

No constants are given. Whether binding was seen depends on the method and setting. In cells and extracts the contact can be indirect.

B1: 14-3-3τ (protein, UniProt P27348 1-245)
chain: MEKTELIQKAKLAEQAERYDDMATCMKAVTEQGAELSNEERNLLSVAYKNVVGGRRSAWRVISSIEQKTDTSDKKLQLIKDYREKVESELRSICTTVLELLDKYLIANATNPESKVFYLKMKGDYFRYLAEVACGDDRKQTIDNSQGAYQEAFDISKKEMQPTHPIRLGLALNFSVFYYEILNNPELACTLAKTAFDEAIAELDTLNEDSYKDSTLIMQLLRDNLTLWTSDSAGEECDAAEGAEN
B1: the binding entry was “no binding”.

B2: 14-3-3γ (protein, UniProt P61981 1-247)
chain: MVDREQLVQKARLAEQAERYDDMAAAMKNVTELNEPLSNEERNLLSVAYKNVVGARRSSWRVISSIEQKTSADGNEKKIEMVRAYREKIEKELEAVCQDVLSLLDNYLIKNCSETQYESKVFYLKMKGDYYRYLAEVATGEKRATVVESSEKAYSEAHEISKEHMQPTHPIRLGLALNYSVFYYEIQNAPEQACHLAKTAFDDAIAELDTLNEDSYKDSTLIMQLLRDNLTLWTSDQQDDDGGEGNN
As to B2, the binding result was “no binding”.

The record behind these values is article PMC6394020.
